Experimental data taken from publication PMC8633436.
These are yes or no findings as the source states them, for the method shown. Binding seen in cells or lysates may run through a third protein. Some entries that bind do so weakly or less than the wild type.

By UniProt entry, the sequences of proteins in these tests, tags left out.
UniProt Q13118: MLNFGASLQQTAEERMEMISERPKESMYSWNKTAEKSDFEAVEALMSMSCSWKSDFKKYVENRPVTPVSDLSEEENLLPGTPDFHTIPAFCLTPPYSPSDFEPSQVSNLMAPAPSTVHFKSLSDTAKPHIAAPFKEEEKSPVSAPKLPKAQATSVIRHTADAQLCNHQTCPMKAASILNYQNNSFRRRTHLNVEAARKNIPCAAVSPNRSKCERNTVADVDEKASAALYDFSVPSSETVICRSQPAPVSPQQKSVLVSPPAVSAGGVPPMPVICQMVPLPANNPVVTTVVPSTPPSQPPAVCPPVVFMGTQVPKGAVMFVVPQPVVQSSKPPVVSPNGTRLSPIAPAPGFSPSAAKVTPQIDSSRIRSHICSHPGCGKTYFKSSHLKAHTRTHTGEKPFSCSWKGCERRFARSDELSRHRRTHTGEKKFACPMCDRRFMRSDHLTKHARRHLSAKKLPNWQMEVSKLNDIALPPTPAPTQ
UniProt P54619: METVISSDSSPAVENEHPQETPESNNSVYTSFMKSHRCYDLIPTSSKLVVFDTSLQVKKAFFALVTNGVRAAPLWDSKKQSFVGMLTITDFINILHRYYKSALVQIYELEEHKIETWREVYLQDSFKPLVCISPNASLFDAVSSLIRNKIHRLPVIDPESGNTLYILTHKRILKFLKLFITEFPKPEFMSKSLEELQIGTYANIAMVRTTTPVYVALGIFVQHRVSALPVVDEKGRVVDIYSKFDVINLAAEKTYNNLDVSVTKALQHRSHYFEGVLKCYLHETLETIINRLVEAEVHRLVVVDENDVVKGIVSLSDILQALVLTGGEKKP

Molecular target: Krüppel-like factor 10 (KLF10) (human (endogenous in HepG2)) (UniProt Q13118)
Test: co-IP; HepG2 cell extracts incubated with anti-KLF10 (normal mouse immunoglobulin as negative control) 1 h at 4°C, protein G Sepharose 4 h; Western blot for AMPK α1, β1, γ1

binding: binds
Substance: AMP-activated protein kinase regulatory subunit γ1 (AMPK γ1) (from UniProt P54619 1-331)
